Experimental data: patent US20140051762A1, “POLYCATIONIC COMPOUNDS AND USES THEREOF” (priority 2004, published 2014)
At least one compound was matched to its structure with a doubt left.

System: Factor Xa
Experiment: Factor Xa inhibition EC50 (fixed heparin concentrations, different amounts of heparin antagonist)
Type: biochemical
Details: read-out: FactorXa Inhibition: EC50
Protocol: The following example illustrates the heparin antagonistic effects of polycationic compounds of the present invention. To determine the anti-heparin activity of the polycationic compounds an assay measuring the percent inhibition using a fixed concentration of polycationic compound or concentrations of polycationic compounds causing lysis of 50% of human red blood cells were conducted.
10 IU of anti-thrombin was dissolved in 10 ml of buffer, resulting in a 1 IU/ml stock solution (250×) of the anti-thrombin. The 1 IU/ml (250×) stock solution of anti-thrombin and a 336 mM stock solution of NaCl were diluted into a total volume of 50 μl buffer so that the final anti-thrombin concentration was 0.004 IU/sample well and the NaCl was 150 mM/sample well. 1 μl of the compound to be tested, final concentration 10 μg/ml (corresponding to 0.5 logarithmic antagonist dilution) is added to the sample well. The samples are mixed and allowed to incubate at room temperature for 20 minutes. 50 μl of factor Xa dissolved in buffer is added to the sample well to a final concentration of 0.14 knat/well (2 μl of the 7.1 kna/1 ml stock solution to a final sample well buffer volume of 100 μl). The samples were mixed and further incubated at room temperature for 10 minutes. 10 μl of a 4 mM stock solution of the substrate S-2765 was added to each sample well for a final concentration of 0.4 mM in each sample well. The samples were mixed and hydrolyses of the chromogenic substrate Z-D-Arg-Gly-Arg-pNA (S-2765), thus liberating the chromophoric group pNA (p-nitroaniline), was monitored at 405 nm. The samples were mixed every 30 seconds to maintain a uniform mixture. ThermoLabsystems Multiskan Spectrum spectrophotometer was used to measure the absorbance spectrums. The increase in absorbance was proportional to the enzyme (factor Xa) activity. The % inhibition of factor Xa was determined using a standard curve.
Factor Xa Inhibition: EC50. To determine the concentration of polycationic compound that causes about 50% […], fixed heparin concentrations were used and different amounts of heparin antagonists were added.

Row | SMILES | EC50 [µM]
1 | COc1ccc(NC(=O)[C@@H](CCCNC(=N)N)NC(=O)c2cc(NC(=O)[C@@H](CCCNC(=N)N)NC(=O)c3cc(NC(=O)[C@H](N)CCCNC(=N)N)ccc3OC)ccc2OC)cc1C(N)=O [Compound 47] | 5.54
2 | COc1ccc(NC(=O)C(CCCNC(=N)N)NC(=O)c2cc(NC(=O)C(CCCNC(=N)N)NC(=O)c3cc(NC(=O)C(CCCNC(=N)N)NC(=O)c4cc(NC(=O)C(N)CCCNC(=N)N)ccc4OC)ccc3OC)ccc2OC)cc1C(N)=O (centres unmarked) [Compound 48] | 0.077
3 | COc1ccc(NC(=O)[C@H](CCCCN)NC(=O)c2cc(NC(=O)[C@H](CCCCN)NC(=O)c3cc(NC(=O)[C@@H](N)CCCCN)ccc3OC)ccc2OC)cc1C(N)=O [Compound 49] | 22
4 | COc1ccc(NC(=O)C(CCCCN)NC(=O)c2cc(NC(=O)C(CCCCN)NC(=O)c3cc(NC(=O)C(CCCCN)NC(=O)c4cc(NC(=O)C(N)CCCCN)ccc4OC)ccc3OC)ccc2OC)cc1C(N)=O (centres unmarked) [Compound 50] | 0.36
5 | COc1ccc(NC(=O)C(CCCN)NC(=O)c2cc(NC(=O)C(CCCN)NC(=O)c3cc(NC(=O)C(CCCN)NC(=O)c4cc(NC(=O)C(N)CCCN)ccc4OC)ccc3OC)ccc2OC)cc1C(N)=O (centres unmarked) [Compound 51] | 16.7
